Experimental data reported in patent US10072020B1, “Isatin spiro compounds with antibacterial activities and a method of preparing the same” (SHAANXI UNIVERSITY OF SCIENCE AND TECHNOLOGY, priority 2018, dated 2018).
Entries after “also recorded” stand apart in the source; their conditions may differ. Some results were stated once for a whole list of compounds, not compound by compound.

These molecules were tested on three tested E. coli strains (assay: Antibacterial activity test, summary over the three tested E. coli strains). Conditions: among the three tested E. coli strains; compared with isatin.
Type: cell-based, Escherichia coli

Question: With `CN1C(=O)[C@@]2(OC=C2C=O)c2cc(Br)ccc21` [Compound 1, (R)-5-bromo-1-methyl-2-oxospiro[indoline-3,2′-oxete]-3′-carbaldehyde] as the molecule, how does the “antibacterial activities (in words, summary of Table 1)” value (“antibacterial activities” below) read?
Answer: different degrees of antibacterial activities

Question: `CN1C(=O)[C@@]2(OC=C2C=O)c2cccc(Br)c21` [Compound 2, (R)-7-bromo-1-methyl-2-oxospiro[indoline-3,2′-oxete]-3′-carbaldehyde] was tested. Which “antibacterial activities” value did it give?
Answer: different degrees of antibacterial activities

Question: Which “antibacterial activities” value does the source give for `CN1C(=O)[C@@]2(OC=C2C=O)c2cc(Cl)ccc21` [Compound 3, (R)-5-chloro-1-methyl-2-oxospiro[indoline-3,2′-oxete]-3′-carbaldehyde] here?
Answer: different degrees of antibacterial activities

Question: For `CN1C(=O)[C@@]2(OC=C2C=O)c2cccc(Cl)c21` [Compound 4, (R)-7-chloro-1-methyl-2-oxospiro[indoline-3,2′-oxete]-3′-carbaldehyde], which “antibacterial activities” value is on record?
Answer: different degrees of antibacterial activities

Question: With `CN1C(=O)[C@@]2(OC(c3ccccc3)=C2C(=O)c2ccccc2)c2cc(Br)ccc21` [Compound 5, (R)-3′-benzoyl-5-bromo-1-methyl-4′-phenylspiro[indoline-3,2′-oxet]-2-one] as the molecule, how does the “antibacterial activities” value read?
Answer: different degrees of antibacterial activities

Question: Which “antibacterial activities” value does the source give for `CN1C(=O)[C@@]2(OC(c3ccccc3)=C2C(=O)c2ccccc2)c2cccc(Br)c21` [Compound 6, (R)-3′-benzoyl-7-bromo-1-methyl-4′-phenylspiro[indoline-3,2′-oxet]-2-one] here?
Answer: different degrees of antibacterial activities

Question: `CN1C(=O)[C@@]2(OC(c3ccccc3)=C2C(=O)c2ccccc2)c2cc(Cl)ccc21` [Compound 7, (R)-3′-benzoyl-5-chloro-1-methyl-4′-phenylspiro[indoline-3,2′-oxet]-2-one] was tested. Which “antibacterial activities” value did it give?
Answer: different degrees of antibacterial activities

Question: For `CN1C(=O)[C@@]2(OC(c3ccccc3)=C2C(=O)c2ccccc2)c2cccc(Cl)c21` [Compound 8, (R)-3′-benzoyl-7-chloro-1-methyl-4′-phenylspiro[indoline-3,2′-oxet]-2-one], which “antibacterial activities” value is on record?
Answer: different degrees of antibacterial activities

Question: For `CCN1C(=O)[C@@]2(OC=C2C(=O)c2ccccc2)c2cc(Br)ccc21` [Compound 9, (R)-3′-benzoyl-5-bromo-1-ethylspiro[indoline-3,2′-oxet]-2-one], which “antibacterial activities” value is on record?
Answer: different degrees of antibacterial activities

Question: `CCCN1C(=O)[C@@]2(OC(c3ccccc3)=C2C=O)c2cccc(Br)c21` [Compound 10, (R)-7-bromo-2-oxo-4′-phenyl-1-propylspiro[indoline-3,2′-oxete]-3′-carbaldehyde] was tested. Which “antibacterial activities” value did it give?
Answer: different degrees of antibacterial activities

Question: For `CCCN1C(=O)[C@@]2(OC=C2C(=O)c2ccccc2)c2cc(Cl)ccc21` [Compound 11, (R)-3′-benzoyl-5-chloro-1-propylspiro[indoline-3,2′-oxet]-2-one], which “antibacterial activities” value is on record?
Answer: different degrees of antibacterial activities

Question: With `CCN1C(=O)[C@@]2(OC(c3ccccc3)=C2C=O)c2cccc(Cl)c21` [Compound 12, (R)-7-chloro-1-ethyl-2-oxo-4′-phenylspiro[indoline-3,2′-oxete]-3′-carbaldehyde] as the molecule, how does the “antibacterial activities” value read?
Answer: different degrees of antibacterial activities

Question: `CCN1C(=O)[C@@]2(OC=C2C=O)c2cc(Br)ccc21` [Compound 13, (R)-5-bromo-1-ethyl-2-oxospiro[indoline-3,2′-oxete]-3′-carbaldehyde] was tested. Which “antibacterial activities” value did it give?
Answer: different degrees of antibacterial activities; also recorded: better activities better than isatin

Question: Which “antibacterial activities” value does the source give for `O=CC1=CO[C@@]12C(=O)N(Cc1ccccc1)c1c(Cl)cccc12` [Compound 14] here?
Answer: different degrees of antibacterial activities; also recorded: better activities better than isatin

Question: `O=C(C1=C(c2ccccc2)O[C@@]12C(=O)N(Cc1ccccc1)c1c(Br)cccc12)c1ccccc1` [Compound 15] was tested. Which “antibacterial activities” value did it give?
Answer: different degrees of antibacterial activities; also recorded: better activities better than isatin

Question: `CCCN1C(=O)[C@@]2(OC(c3ccccc3)=C2C(=O)c2ccccc2)c2cc(Cl)ccc21` [Compound 16, (R)-3′-benzoyl-5-chloro-4′-phenyl-1-propylspiro[indoline-3,2′-oxet]-2-one] was tested. Which “antibacterial activities” value did it give?
Answer: different degrees of antibacterial activities; also recorded: better activities better than isatin
